Patent publication US20190062727A1 (University of Texas, published 2019)
These are yes or no findings as the source states them, for the method shown. Binding seen in cells or lysates may run through a third protein. Some binding calls cover weakened binding; strength is not graded here. Blank lines part the entries; values can stand above or below the molecule they belong to.

Sequences of proteins named here, by UniProt entry; tags and fusion partners are left off.
UniProt P38532: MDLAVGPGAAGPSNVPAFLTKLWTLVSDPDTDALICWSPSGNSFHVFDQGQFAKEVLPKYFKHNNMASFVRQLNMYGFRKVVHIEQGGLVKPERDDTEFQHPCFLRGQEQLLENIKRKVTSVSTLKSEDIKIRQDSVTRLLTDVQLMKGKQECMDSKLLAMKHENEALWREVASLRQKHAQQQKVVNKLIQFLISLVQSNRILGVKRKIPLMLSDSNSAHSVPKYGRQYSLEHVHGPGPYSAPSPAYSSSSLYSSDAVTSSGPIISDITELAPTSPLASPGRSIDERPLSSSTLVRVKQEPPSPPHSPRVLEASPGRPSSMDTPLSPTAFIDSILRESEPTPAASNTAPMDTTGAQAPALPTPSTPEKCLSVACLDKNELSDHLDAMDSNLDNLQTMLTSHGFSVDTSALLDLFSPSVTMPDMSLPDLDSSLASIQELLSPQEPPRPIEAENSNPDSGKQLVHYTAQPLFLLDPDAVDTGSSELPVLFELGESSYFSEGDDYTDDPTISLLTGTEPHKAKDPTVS

Key:
[1] = biological target: p53 (TP53), endogenous protein of mouse embryonic fibroblasts and mouse liver (mouse) (UniProt P02340); experiment: proximity ligation assay in mouse liver sections
[2] = biological target: HSF1 (heat shock factor 1), endogenous protein of mouse embryonic fibroblasts and mouse liver (mouse) (UniProt P38532); experiment: proximity ligation assay in liver sections
[3] = biological target: HSF1 (heat shock factor 1), endogenous protein of mouse embryonic fibroblasts and mouse liver (mouse) (UniProt P38532); experiment: co-immunoprecipitation from whole-cell homogenates of wt, p53+/- and p53-/- MEFs

binding [1]: binds
Molecule: HSF1 (heat shock factor 1), endogenous protein of mouse embryonic fibroblasts and mouse liver (from UniProt P38532 1-525)

binding [2]: binds
B1: p53 (TP53), endogenous protein of mouse embryonic fibroblasts and mouse liver (other, UniProt P02340 1-390, looked up)
chain: MTAMEESQSDISLELPLSQETFSGLWKLLPPEDILPSPHCMDDLLLPQDVEEFFEGPSEALRVSGAPAAQDPVTETPGPVAPAPATPWPLSSFVPSQKTYQGNYGFHLGFLQSGTAKSVMCTYSPPLNKLFCQLAKTCPVQLWVSATPPAGSRVRAMAIYKKSQHMTEVVRRCPHHERCSDGDGLAPPQHLIRVEGNLYPEYLEDRQTFRHSVVVPYEPPEAGSEYTTIHYKYMCNSSCMGGMNRRPILTIITLEDSSGNLLGRDSFEVRVCACPGRDRRTEEENFRKKEVLCPELPPGSAKRALPTCTSASPPQKKKPLDGEYFTLKIRGRKRFEMFRELNEALELKDAHATEESGDSRAHSSYLKTKKGQSTSRHKKTMVKKVGPDSD
notes: Endogenous protein, detected with a mouse monoclonal anti-p53 antibody from Cell Signaling Technology

binding [3]: binds
B2: Rlip (RALBP1, RLIP76), endogenous protein of mouse embryonic fibroblasts and mouse liver (protein, UniProt Q62172 2-648, looked up)
chain: TECFLPPSSSPSEHRRAEHGSGLTRTPSSEEISPTKFPGLYRTGEPSPPHDVLHEPPDTVSDDDKDHGKKKGKFKKKEKRTEGYAAFQEDSSGDEAESPSKVKRSKGIHVFKKPSFSKKKEKDFKIKEKPKEEKHKEEKHKEEKHKEKKSKDLTAADVVKQWKEKKKKKKPIQEPEVPQMDAPSVKPIFGVPLVDAVERTMMYDGVRLPAVFRECVDYMEKHGMKCEGVYRVSGIKSKVDELKAAYDREESPNLEEYEPNTVASLLKQYLRDLPENLLTKELMPRFEEACGKTTEMEKVQEFQRLLRELPECNHLLLSWLIVHLDHVIAKELETKMNIQNISIVLSPTVQISNRVLYVLFTHVQELFGTVVLKQVTRPLRWSNMATMPTLPETQAGIKEEIRRQEFLLNCLHRDLQGGIKDLSKEERLWEVQRILTALKRKLREAKRQECETKIAQEIASLSKEDVSKEEMNENEEVINILLAQENEILTEQEELLAMEQFLRRQIASEKEEIDRLRAEIAEIQSRQQHGRSETEEYSSDSESESEDEEELQLILEDLQRQNEELEIKNNHLNQAVHEEREAIIELRVQLRLLQMQRAKSEQQPQEEEEPERRGGIGPPPCDGVLEVRVAKEQAKASPSKDRKETPI
